Measured values: publication PMC11480360
No constants are given. Whether binding was seen depends on the method and setting. In cells and extracts the contact can be indirect. A result given as binding can be weak or reduced; the word gives no strength.

Molecular target: T1, TAK1 (transforming growth factor-β activated kinase 1), endogenous in neonatal rat cardiomyocytes (rat (endogenous in NRCMs)) (UniProt P0C8E4)
T1 sequence: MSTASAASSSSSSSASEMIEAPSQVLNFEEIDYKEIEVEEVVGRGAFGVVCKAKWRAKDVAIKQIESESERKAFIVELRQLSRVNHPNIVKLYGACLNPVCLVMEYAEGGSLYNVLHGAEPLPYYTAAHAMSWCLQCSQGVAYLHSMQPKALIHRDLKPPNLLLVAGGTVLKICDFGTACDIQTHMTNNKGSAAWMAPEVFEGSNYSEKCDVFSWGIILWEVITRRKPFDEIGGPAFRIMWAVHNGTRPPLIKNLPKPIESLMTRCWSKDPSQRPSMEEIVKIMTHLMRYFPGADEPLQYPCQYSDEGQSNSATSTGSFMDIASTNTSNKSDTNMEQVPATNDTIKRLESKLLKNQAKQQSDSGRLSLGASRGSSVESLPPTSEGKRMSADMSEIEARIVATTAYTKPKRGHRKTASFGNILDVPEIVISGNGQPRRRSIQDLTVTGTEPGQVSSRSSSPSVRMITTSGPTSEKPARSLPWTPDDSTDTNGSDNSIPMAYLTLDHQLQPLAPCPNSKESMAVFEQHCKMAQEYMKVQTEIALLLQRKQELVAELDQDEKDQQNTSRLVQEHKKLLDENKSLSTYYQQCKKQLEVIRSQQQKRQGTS
Test: co-IP; endogenous co-IP in NRCMs after doxorubicin treatment

binding: binds
Substance: TRAF3 (TNF receptor associated factor 3), endogenous in neonatal rat cardiomyocytes
